The record followed here is PMC6990627 (ACS Omega, 2020).

Where a name gives a salt, the structure may show the parent alone.

One may read the Papp as the rate of passage across a membrane or cell layer, normalised by area and donor concentration. A lower Papp goes with poor permeation.

One data set in a line: in vitro. Conditions: PAMPA, pH 7.4.
For data set [1] the following is noted: PAMPA-BBB; values over 3.3 × 10^–6 cm/s said to cross the BBB. On the technique in general: PAMPA measures passive passage across an artificial lipid membrane.

In “in vitro”, `COc1cc2c(cc1OC)C(=O)C(CC1CCN(Cc3ccccc3)CC1)C2` (centres unmarked) [donepezil HCl, donepezil hydrochloride] returned a Papp at 18 h, 100 μM of 9.54 ×10⁻⁶ cm/s. The BBB/CNS permeability classification entry in data set [1] is reported as “CNS+”.
